From the supplement of paper PMC9233669 come the findings set out here.

Variants at the floor of the assay are shown more often than the library holds them.

The subject of one data set is biotinyl-Ile-oxazolone. The data set is described as follows: self-aminoacylation, catalytic enhancement (BIO) (fold over background); higher = more active; k-Seq, kA / k0A0; sequences stand for … in GGGAAUGGAUCCACAUCUACGAAUUC…UUCACUGCAGACUUGACGAAGCUG
In a few lines:
(§1)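 Mutagenized RNA pools (0.43 μM; 21-nt variable region) were treated with 2–1250 μM of each biotinyl-aminoacyl-oxazolone. Conditions were 50 μL HEPES/NaCl/KCl/MgCl2/CaCl2 buffer, 5% acetonitrile, pH 6.9–7.0, room temperature, 90 minutes. Catalytic enhancement, the median kA relative to the uncatalyzed rate, was derived from streptavidin capture, qPCR and Illumina sequencing.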

In another data set the test system is biotinyl-Val-oxazolone. The data set is described as follows: self-aminoacylation, catalytic enhancement (BVO) (fold over background); higher = more active; k-Seq, kA / k0A0; sequences stand for … in GGGAAUGGAUCCACAUCUACGAAUUC…UUCACUGCAGACUUGACGAAGCUG
In a few lines: as §1

A further data set has as its system biotinyl-Met-oxazolone. The data set can be described thus: self-aminoacylation, catalytic enhancement (BMO) (fold over background); higher = more active; k-Seq, kA / k0A0; sequences stand for … in GGGAAUGGAUCCACAUCUACGAAUUC…UUCACUGCAGACUUGACGAAGCUG
In outline:
as §1

Consider “AUUCACUUAGAUCAUCGGGUG [Fam2.2 aminoacylation ribozyme variant]”, for which the figures for the self-aminoacylation in the data set on biotinyl-Ile-oxazolone and in the data set with biotinyl-Val-oxazolone were 1.74 and 1.81, respectively.

On to “CCACUUCAAACAAUCGGUCUC [Fam1A.1 aminoacylation ribozyme variant]”, for which the self-aminoacylation was 1.59 in the data set on biotinyl-Ile-oxazolone and 1.71 in the data set on biotinyl-Val-oxazolone.

Turning to “AUUAACCUAGGACAUCGGGUG [Fam2.2 aminoacylation ribozyme variant]”, the values for the self-aminoacylation with biotinyl-Ile-oxazolone, in the data set with biotinyl-Val-oxazolone and with biotinyl-Met-oxazolone were 1.84, 2 and 1.96, respectively.

In the case of “CUAGUUCAAACAAUGGGUCUG [Fam1A.1 aminoacylation ribozyme variant]”, the self-aminoacylation in the data set on biotinyl-Ile-oxazolone was determined as 1.14.

Take “AUUCACAUAGGUCAUCUGGUG [Fam2.2 aminoacylation ribozyme variant]”: the self-aminoacylation in the data set with biotinyl-Val-oxazolone was found to be 1.96.

“CCCGACUUCAAGCAAUCGGUC [Fam1B.1 aminoacylation ribozyme variant]”: the values for the self-aminoacylation with biotinyl-Ile-oxazolone, with biotinyl-Val-oxazolone and with biotinyl-Met-oxazolone were 1.63, 1.92 and 1.85, respectively.

As to “AAGCUUGUUAAUAGUCGCAAG [Fam3.1 aminoacylation ribozyme variant]”, the self-aminoacylation in the data set with biotinyl-Val-oxazolone is 1.74.

With “AUUCACCUAUGUCAUUGGGUG [Fam2.2 aminoacylation ribozyme variant]”, the self-aminoacylation was 1.69 in the data set with biotinyl-Ile-oxazolone and 1.64 in the data set on biotinyl-Val-oxazolone.

Regarding “AUUCACAUAGGUCAUCGAGUG [Fam2.2 aminoacylation ribozyme variant]”, the results for the self-aminoacylation with biotinyl-Ile-oxazolone, in the data set with biotinyl-Val-oxazolone and with biotinyl-Met-oxazolone were 1.56, 1.45 and 1.92, respectively.

With “AUUACCCUGGGCAUCGAGUUA [Fam2.1 aminoacylation ribozyme variant]”, the self-aminoacylation in the data set on biotinyl-Ile-oxazolone worked out at 0.909; with biotinyl-Val-oxazolone, 1.11; with biotinyl-Met-oxazolone, 0.642.

For “CUACUUGAAACAAUCUGUCUG [Fam1A.1 aminoacylation ribozyme variant]”, the self-aminoacylation with biotinyl-Ile-oxazolone was 0.655; in the data set on biotinyl-Val-oxazolone, 0.657.

As to “AUUCACCGAGGUCAUCGGUUG [Fam2.2 aminoacylation ribozyme variant]”, the self-aminoacylation in the data set on biotinyl-Ile-oxazolone was 1.93; in the data set on biotinyl-Val-oxazolone, 1.77.

For “CCACACUUCAAGCAUUCGAUC [Fam1B.1 aminoacylation ribozyme variant]”, the figures for the self-aminoacylation in the data set on biotinyl-Ile-oxazolone and with biotinyl-Val-oxazolone were 0.664 and 0.856, respectively.

As to “AUUCUCCUAGGUCAACGGGUG [Fam2.2 aminoacylation ribozyme variant]”, the self-aminoacylation in the data set with biotinyl-Ile-oxazolone is 3.79; with biotinyl-Val-oxazolone, 3.61; in the data set on biotinyl-Met-oxazolone it was 6.57.

With “AUUCACCUCGGUCAUCGAGUG [Fam2.2 aminoacylation ribozyme variant]”, the self-aminoacylation in the data set with biotinyl-Ile-oxazolone was determined as 1.85; with biotinyl-Val-oxazolone it was 1.87.

“CCACACUGUAAGCAAUCGGUC [Fam1B.1 aminoacylation ribozyme variant]”: the self-aminoacylation with biotinyl-Ile-oxazolone was 1.06; in the data set with biotinyl-Val-oxazolone, 1.14.

As for “AUUACCCUGGUCAUCGCGUGA [Fam2.1 aminoacylation ribozyme variant]”, the self-aminoacylation is 8.09 in the data set on biotinyl-Ile-oxazolone and 9.74 with biotinyl-Val-oxazolone.

Regarding “AAUUUUGAUAAUAGUCGCAAG [Fam3.1 aminoacylation ribozyme variant]”, the results for the self-aminoacylation in the data set on biotinyl-Ile-oxazolone and in the data set with biotinyl-Val-oxazolone were 1.7 and 1.39, respectively.

On to “CCGCAUUUCAAGCAAUCGGUC [Fam1B.1 aminoacylation ribozyme variant]”, for which the results for the self-aminoacylation in the data set with biotinyl-Ile-oxazolone and in the data set with biotinyl-Val-oxazolone were 2.36 and 2.48, respectively.

In the case of “AACUUUGCUAAUAGUCGCAAC [Fam3.1 aminoacylation ribozyme variant]”, the self-aminoacylation with biotinyl-Val-oxazolone was found to be 1.77; in the data set with biotinyl-Met-oxazolone, 1.71.

In the case of “CUUACCUUGGUCAUCGAGUGA [Fam2.1 aminoacylation ribozyme variant]”, the self-aminoacylation with biotinyl-Ile-oxazolone was found to be 1.99.

As to “AUUAUCCUCGUCAUCGAGUGA [Fam2.1 aminoacylation ribozyme variant]”, the values for the self-aminoacylation in the data set with biotinyl-Ile-oxazolone and in the data set on biotinyl-Val-oxazolone were 1.82 and 1.74, respectively.

As for “CUUACCCUGGUCAUCGAGUGC [Fam2.1 aminoacylation ribozyme variant]”, the figures for the self-aminoacylation with biotinyl-Ile-oxazolone and in the data set with biotinyl-Val-oxazolone were 1.54 and 1.84, respectively.

Turning to “AAGUUUGCUAAUAGUCGCCAG [Fam3.1 aminoacylation ribozyme variant]”, the self-aminoacylation turned out to be 1.02 in the data set on biotinyl-Ile-oxazolone and 0.997 in the data set with biotinyl-Val-oxazolone.

For “CUUAGCCUGGUCAUCGAGUGA [Fam2.1 aminoacylation ribozyme variant]”, the self-aminoacylation was 1.94 in the data set on biotinyl-Ile-oxazolone and 1.95 in the data set with biotinyl-Val-oxazolone.

On to “AUUACCCUGGUGAGCGAGUGA [Fam2.1 aminoacylation ribozyme variant]”, for which the self-aminoacylation in the data set on biotinyl-Val-oxazolone was found to be 1.82.

Consider “AUUACCCUGGUCAUCGAGGGG [Fam2.1 aminoacylation ribozyme variant]”, for which the self-aminoacylation with biotinyl-Ile-oxazolone worked out at 1.27; with biotinyl-Val-oxazolone it was 1.86.

Regarding “AUUACACUGGUCAUGGAGUGA [Fam2.1 aminoacylation ribozyme variant]”, the self-aminoacylation in the data set on biotinyl-Ile-oxazolone is 1.99.

With “AUUCACCUAGAUCAGCGGGUG [Fam2.2 aminoacylation ribozyme variant]”, the self-aminoacylation worked out at 1.99 with biotinyl-Ile-oxazolone and 1.83 in the data set on biotinyl-Val-oxazolone.

As to “CCACACUUCAAGAAAGCGGUC [Fam1B.1 aminoacylation ribozyme variant]”, the self-aminoacylation with biotinyl-Ile-oxazolone turned out to be 0.839; in the data set with biotinyl-Val-oxazolone it was 0.716.

Take “CUACUUCAAACAAUCCUUCUG [Fam1A.1 aminoacylation ribozyme variant]”: the self-aminoacylation in the data set with biotinyl-Ile-oxazolone worked out at 0.603; in the data set with biotinyl-Val-oxazolone, 0.665.

In the case of “CCGCUUCAAACAAUCGGUCUG [Fam1A.1 aminoacylation ribozyme variant]”, in the data set on biotinyl-Ile-oxazolone, the self-aminoacylation came to 1.77.

In the case of “AUAACCCUGGUCAUCGUGUGA [Fam2.1 aminoacylation ribozyme variant]”, the self-aminoacylation with biotinyl-Ile-oxazolone was determined as 1.54; in the data set on biotinyl-Val-oxazolone, 1.6.

On to “AUUACCCUGGUCAUCGAGAAA [Fam2.1 aminoacylation ribozyme variant]”, for which the figures for the self-aminoacylation with biotinyl-Ile-oxazolone and in the data set on biotinyl-Val-oxazolone were 1.43 and 1.53, respectively.

For the sequence “AUGACACUGGUCAUCGAGUGA [Fam2.1 aminoacylation ribozyme variant]”, the self-aminoacylation in the data set on biotinyl-Ile-oxazolone was found to be 3.42; in the data set with biotinyl-Val-oxazolone, 3.05.

As to “AUUCAACUAGGACAUCGGGUG [Fam2.2 aminoacylation ribozyme variant]”, in the data set on biotinyl-Val-oxazolone, the self-aminoacylation is 1.9.

On to “CCGCGCUUCAAGCAAUCGGUC [Fam1B.1 aminoacylation ribozyme variant]”, for which the self-aminoacylation with biotinyl-Ile-oxazolone came to 2.

As to “AGGUUUGCCAAUAGUCGCAAG [Fam3.1 aminoacylation ribozyme variant]”, in the data set on biotinyl-Val-oxazolone, the self-aminoacylation was 1.92.

For “AUUACCCUGGUCAGCGAGUGG [Fam2.1 aminoacylation ribozyme variant]”, the self-aminoacylation was found to be 1.84 in the data set with biotinyl-Ile-oxazolone and 1.41 with biotinyl-Val-oxazolone.

Consider “AUGACCCUGGUCGUCGAGUGA [Fam2.1 aminoacylation ribozyme variant]”, for which the self-aminoacylation is 1.01 in the data set with biotinyl-Ile-oxazolone and 0.888 in the data set on biotinyl-Val-oxazolone.

Regarding “AAGCUUGCUAAUAGCCGCAAG [Fam3.1 aminoacylation ribozyme variant]”, the self-aminoacylation in the data set with biotinyl-Ile-oxazolone worked out at 1.76; with biotinyl-Val-oxazolone it was 1.57.
